Data set [1] addresses T1, Twinkle CTD (C-terminal domain plus linker) (Homo sapiens) (UniProt Q96RR1).
T1 sequence (looked up): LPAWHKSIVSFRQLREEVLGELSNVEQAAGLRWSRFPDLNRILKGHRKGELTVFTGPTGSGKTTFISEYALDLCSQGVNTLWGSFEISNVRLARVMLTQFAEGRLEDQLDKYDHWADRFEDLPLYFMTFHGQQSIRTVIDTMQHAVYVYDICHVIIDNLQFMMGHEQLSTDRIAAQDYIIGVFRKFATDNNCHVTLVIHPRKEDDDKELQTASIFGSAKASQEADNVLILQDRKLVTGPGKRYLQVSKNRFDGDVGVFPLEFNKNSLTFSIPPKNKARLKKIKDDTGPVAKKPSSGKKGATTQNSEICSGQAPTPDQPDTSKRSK
Briefly: fluorescence anisotropy. To be noted: 50 mM NaCl, 50 mM Tris acetate pH 7.5, 10% glycerol, 0.05% Tween-20, 0.5 mM DTT, 0 or 50 mM NaCl, 2.5 nM DNA, no Mg2+ or nucleotide listed, temperature not stated, recombinant protein, residues 360-684, protein details: SUMO tag removed (ULP1), label: 3' fluorescein-T, single-stranded DNA. (In fluorescence polarisation assays a small probe gives low polarisation when free and higher when bound to something large.)

In data set [2] the target is T2, Twinkle NTD (Homo sapiens) (UniProt Q96RR1).
T2 sequence (looked up): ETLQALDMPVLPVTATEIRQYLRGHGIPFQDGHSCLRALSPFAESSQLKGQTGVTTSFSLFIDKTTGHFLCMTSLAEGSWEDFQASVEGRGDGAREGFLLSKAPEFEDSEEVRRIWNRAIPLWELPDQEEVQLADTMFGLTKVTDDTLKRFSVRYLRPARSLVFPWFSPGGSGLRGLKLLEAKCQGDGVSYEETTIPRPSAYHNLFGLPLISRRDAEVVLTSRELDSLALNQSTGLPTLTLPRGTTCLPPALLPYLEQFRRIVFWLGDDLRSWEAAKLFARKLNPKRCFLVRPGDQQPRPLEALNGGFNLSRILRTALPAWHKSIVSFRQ
Briefly: fluorescence anisotropy. As to conditions: 50 mM NaCl, 50 mM Tris acetate pH 7.5, 10% glycerol, 0.05% Tween-20, 0.5 mM DTT, 0 or 50 mM NaCl, 2.5 nM DNA, no Mg2+ or nucleotide listed, temperature not stated, recombinant protein, residues 43-372, protein details: SUMO tag removed (ULP1), label: 3' fluorescein-T, single-stranded DNA; for binding result: dash in table.

No signal at the amounts used counts as a negative. At least one verdict rests on a figure or table, not on a statement of the authors. Where a protein sequence is shown, tags need not be part of it. The exact form of at least one protein or probe is not confirmed. For some of these results: Weaker means in comparison with the reference protein, sequence or condition of that experiment.

As a reminder, the Kd is the equilibrium constant for the complex coming apart. With AACTCTTGAACACT [14 nt ssDNA], the Kd in data set [1] was 128 nM. In addition, in data set [2] (salt competed effectively), the binding result is “no binding”.
The matching figures for ATAACTCTTGAACACT [16 nt ssDNA]: 117 nM and “no binding”.
As for CTCTTGAACACT [12 nt ssDNA], the binding result in data set [1] (barely any binding, no Kd) is “binds more weakly”; in data set [2] (salt competed effectively), “no binding”.
Consider TGAACACT [8 nt ssDNA], for which the binding result in data set [1] (dash in table) and in data set [2] was “no binding” throughout.
With TGCTATAACTCTTGAACACT [20 nt ssDNA], the Kd in data set [2] stood at 440 nM.
Still for that read-out and setting: as for “TGTGTTAGTTGGGGGGTGACTGTTAAAAGT [30 nt ssDNA]”, the figure is 264 nM.
